From paper doi:10.1101/2025.04.19.649674
These are yes or no findings as the source states them, for the method shown. Binding seen in cells or lysates may run through a third protein. A yes stands for co-enrichment or nearness to the bait. Other partners may have been found.

Chains of the proteins cited; added tags and fusions are not shown.
UniProt O43353: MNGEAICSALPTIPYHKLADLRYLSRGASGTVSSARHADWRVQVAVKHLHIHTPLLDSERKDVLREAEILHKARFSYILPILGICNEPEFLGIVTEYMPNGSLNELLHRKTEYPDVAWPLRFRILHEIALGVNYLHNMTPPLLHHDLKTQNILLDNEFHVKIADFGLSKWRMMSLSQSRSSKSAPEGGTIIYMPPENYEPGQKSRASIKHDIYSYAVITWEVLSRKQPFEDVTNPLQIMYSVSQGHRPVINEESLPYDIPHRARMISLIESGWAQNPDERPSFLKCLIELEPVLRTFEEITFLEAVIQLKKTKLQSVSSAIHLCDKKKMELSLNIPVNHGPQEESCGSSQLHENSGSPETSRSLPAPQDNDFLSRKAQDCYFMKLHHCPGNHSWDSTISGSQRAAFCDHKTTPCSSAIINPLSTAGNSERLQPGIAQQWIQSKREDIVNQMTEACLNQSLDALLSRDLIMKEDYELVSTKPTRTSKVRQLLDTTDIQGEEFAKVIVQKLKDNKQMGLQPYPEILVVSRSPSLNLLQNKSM
UniProt Q8NF50: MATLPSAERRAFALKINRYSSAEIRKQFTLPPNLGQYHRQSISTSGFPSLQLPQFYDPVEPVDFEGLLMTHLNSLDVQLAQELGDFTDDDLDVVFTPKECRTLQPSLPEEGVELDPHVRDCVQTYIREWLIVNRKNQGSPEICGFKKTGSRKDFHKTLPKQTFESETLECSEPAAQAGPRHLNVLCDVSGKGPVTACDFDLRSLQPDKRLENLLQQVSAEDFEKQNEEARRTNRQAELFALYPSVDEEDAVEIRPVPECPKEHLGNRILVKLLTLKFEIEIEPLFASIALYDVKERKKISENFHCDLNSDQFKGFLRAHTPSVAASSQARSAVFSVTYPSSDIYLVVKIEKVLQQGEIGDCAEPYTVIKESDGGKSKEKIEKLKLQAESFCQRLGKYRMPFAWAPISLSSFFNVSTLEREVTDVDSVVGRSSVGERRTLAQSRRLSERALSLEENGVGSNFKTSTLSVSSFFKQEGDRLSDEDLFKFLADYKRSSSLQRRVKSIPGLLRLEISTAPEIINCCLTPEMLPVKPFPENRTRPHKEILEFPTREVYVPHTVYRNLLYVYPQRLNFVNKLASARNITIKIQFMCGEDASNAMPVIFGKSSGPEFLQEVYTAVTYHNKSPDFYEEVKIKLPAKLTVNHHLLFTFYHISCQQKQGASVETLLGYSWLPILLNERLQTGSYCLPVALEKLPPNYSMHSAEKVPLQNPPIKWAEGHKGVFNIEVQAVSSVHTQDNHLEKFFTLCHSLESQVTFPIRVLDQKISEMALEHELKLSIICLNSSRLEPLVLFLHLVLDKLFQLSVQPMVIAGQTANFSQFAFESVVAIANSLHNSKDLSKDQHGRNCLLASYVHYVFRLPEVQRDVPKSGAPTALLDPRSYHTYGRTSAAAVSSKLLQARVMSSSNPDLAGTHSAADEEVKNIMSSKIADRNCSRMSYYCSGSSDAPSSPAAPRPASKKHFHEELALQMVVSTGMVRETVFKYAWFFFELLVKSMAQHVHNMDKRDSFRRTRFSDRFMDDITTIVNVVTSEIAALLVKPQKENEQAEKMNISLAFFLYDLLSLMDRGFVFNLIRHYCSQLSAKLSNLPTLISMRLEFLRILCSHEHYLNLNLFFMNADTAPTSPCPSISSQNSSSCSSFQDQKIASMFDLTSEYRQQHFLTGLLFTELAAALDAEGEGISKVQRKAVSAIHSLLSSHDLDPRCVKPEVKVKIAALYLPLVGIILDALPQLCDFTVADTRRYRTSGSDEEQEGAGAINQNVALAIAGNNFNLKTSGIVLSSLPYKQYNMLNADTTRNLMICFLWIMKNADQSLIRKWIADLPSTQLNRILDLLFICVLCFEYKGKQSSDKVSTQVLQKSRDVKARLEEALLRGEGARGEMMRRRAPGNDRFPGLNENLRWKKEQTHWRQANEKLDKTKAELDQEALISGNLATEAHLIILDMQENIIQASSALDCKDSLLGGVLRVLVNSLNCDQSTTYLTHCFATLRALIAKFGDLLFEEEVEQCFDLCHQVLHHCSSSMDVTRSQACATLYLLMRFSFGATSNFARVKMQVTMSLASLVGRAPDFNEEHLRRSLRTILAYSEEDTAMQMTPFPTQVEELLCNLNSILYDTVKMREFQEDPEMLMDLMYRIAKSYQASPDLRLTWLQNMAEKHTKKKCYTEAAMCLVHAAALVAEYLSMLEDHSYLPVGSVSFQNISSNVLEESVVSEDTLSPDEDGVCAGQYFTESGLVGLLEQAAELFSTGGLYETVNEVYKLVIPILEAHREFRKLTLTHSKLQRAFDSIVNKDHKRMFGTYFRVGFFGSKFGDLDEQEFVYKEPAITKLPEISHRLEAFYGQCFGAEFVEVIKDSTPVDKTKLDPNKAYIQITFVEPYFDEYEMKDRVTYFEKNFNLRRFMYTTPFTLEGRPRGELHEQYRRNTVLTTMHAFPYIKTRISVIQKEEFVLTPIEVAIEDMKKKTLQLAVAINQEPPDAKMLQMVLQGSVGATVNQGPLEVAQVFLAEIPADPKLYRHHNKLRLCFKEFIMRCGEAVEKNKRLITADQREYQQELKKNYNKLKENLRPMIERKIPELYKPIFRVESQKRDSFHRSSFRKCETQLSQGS

Target: phosphorylated RIP2 (Ser 176), receptor-interacting protein 2 (human (endogenous in human platelets)) (UniProt O43353)
Experiment: affinity purification with mass spectrometry

- binding: binds
Substance: DOCK8 (dedicator of cytogenesis protein 8) (from UniProt Q8NF50 1-2099)
